Test results reported in US20100143897A1, “Materials and Methods for Assaying for Glyoxylate” (University of South Florida, priority 2005, published 2010).

Tested on: peptidylglycine α-amidating monooxygenase (PAM)
Assay: PAM treatment of hippurate: benzamide by HPLC, glyoxylate by malate synthase/malate dehydrogenase/MTS/PMS system
Format: biochemical
Method: Spectrophotometric enzyme-linked assays for glyoxylate were initiated by the addition of malate synthase and malate dehydrogenase. […] The absorbance at 490 nm was measured after one hour incubation at 37° C. in the dark. The small amount of MTS reduced for the zero glyoxylate control was subtracted from that obtained in the presence of glyoxylate. Hippurate (N-benzoylglycine, C6H5—CO—NH—CH2—COO^−) is a PAM substrate that is oxidatively converted to benzamide and glyoxylate. […] At 10 min intervals over a period of 110 minutes, 45 μl aliquots were removed and added to 10 μl of 6% (v/v) trifluoroacetic acid to terminate the reaction. Percent conversion of hippurate to benzamide was determined at each time interval by reverse-phase HPLC. […] Following ascorbate removal the addition of 100 ul enzyme couple and PMS/MTS brought the assay to a final volume of 1 ml which contained 100 mM TEA-HCl pH 7.8, 10 mM MgCl2, 400 μM acetyl-CoA, 500 μM NAD^+, 6 U/ml malate synthase, 6 U/ml malate dehydrogenase, and 12 units ascorbate oxidase. […] A control for this experiment was performed at each time point, and contained no hippurate.

O=C(O)CNC(=O)c1ccccc1 [Hippurate, N-benzoylglycine] was tested, and the “[Glyoxylate]/[Benzamide]” value (Time 40) was 1.2, the “[Glyoxylate]/[Benzamide]” value (Time 50) was 0.96 and the “[Glyoxylate]/[Benzamide]” value (Time 60) was 0.89. The “[Glyoxylate]/[Benzamide]” value (Time 70) was 0.83, the “[Glyoxylate]/[Benzamide]” value (Time 80) was 0.79 and the “[Glyoxylate]/[Benzamide]” value (Time 90) was 1.2. The “[Glyoxylate]/[Benzamide]” value (Time 100) was 1.1 and the “[Glyoxylate]/[Benzamide]” value (Time 110) was 1.0.
